According to publication PMC10669082:
Results are given in words; binding and its absence hold for the method and conditions named. Binding seen in cells or lysates may run through a third protein. Some entries that bind do so weakly or less than the wild type.

By UniProt entry, the sequences of proteins in these tests, tags left out.
UniProt Q92793: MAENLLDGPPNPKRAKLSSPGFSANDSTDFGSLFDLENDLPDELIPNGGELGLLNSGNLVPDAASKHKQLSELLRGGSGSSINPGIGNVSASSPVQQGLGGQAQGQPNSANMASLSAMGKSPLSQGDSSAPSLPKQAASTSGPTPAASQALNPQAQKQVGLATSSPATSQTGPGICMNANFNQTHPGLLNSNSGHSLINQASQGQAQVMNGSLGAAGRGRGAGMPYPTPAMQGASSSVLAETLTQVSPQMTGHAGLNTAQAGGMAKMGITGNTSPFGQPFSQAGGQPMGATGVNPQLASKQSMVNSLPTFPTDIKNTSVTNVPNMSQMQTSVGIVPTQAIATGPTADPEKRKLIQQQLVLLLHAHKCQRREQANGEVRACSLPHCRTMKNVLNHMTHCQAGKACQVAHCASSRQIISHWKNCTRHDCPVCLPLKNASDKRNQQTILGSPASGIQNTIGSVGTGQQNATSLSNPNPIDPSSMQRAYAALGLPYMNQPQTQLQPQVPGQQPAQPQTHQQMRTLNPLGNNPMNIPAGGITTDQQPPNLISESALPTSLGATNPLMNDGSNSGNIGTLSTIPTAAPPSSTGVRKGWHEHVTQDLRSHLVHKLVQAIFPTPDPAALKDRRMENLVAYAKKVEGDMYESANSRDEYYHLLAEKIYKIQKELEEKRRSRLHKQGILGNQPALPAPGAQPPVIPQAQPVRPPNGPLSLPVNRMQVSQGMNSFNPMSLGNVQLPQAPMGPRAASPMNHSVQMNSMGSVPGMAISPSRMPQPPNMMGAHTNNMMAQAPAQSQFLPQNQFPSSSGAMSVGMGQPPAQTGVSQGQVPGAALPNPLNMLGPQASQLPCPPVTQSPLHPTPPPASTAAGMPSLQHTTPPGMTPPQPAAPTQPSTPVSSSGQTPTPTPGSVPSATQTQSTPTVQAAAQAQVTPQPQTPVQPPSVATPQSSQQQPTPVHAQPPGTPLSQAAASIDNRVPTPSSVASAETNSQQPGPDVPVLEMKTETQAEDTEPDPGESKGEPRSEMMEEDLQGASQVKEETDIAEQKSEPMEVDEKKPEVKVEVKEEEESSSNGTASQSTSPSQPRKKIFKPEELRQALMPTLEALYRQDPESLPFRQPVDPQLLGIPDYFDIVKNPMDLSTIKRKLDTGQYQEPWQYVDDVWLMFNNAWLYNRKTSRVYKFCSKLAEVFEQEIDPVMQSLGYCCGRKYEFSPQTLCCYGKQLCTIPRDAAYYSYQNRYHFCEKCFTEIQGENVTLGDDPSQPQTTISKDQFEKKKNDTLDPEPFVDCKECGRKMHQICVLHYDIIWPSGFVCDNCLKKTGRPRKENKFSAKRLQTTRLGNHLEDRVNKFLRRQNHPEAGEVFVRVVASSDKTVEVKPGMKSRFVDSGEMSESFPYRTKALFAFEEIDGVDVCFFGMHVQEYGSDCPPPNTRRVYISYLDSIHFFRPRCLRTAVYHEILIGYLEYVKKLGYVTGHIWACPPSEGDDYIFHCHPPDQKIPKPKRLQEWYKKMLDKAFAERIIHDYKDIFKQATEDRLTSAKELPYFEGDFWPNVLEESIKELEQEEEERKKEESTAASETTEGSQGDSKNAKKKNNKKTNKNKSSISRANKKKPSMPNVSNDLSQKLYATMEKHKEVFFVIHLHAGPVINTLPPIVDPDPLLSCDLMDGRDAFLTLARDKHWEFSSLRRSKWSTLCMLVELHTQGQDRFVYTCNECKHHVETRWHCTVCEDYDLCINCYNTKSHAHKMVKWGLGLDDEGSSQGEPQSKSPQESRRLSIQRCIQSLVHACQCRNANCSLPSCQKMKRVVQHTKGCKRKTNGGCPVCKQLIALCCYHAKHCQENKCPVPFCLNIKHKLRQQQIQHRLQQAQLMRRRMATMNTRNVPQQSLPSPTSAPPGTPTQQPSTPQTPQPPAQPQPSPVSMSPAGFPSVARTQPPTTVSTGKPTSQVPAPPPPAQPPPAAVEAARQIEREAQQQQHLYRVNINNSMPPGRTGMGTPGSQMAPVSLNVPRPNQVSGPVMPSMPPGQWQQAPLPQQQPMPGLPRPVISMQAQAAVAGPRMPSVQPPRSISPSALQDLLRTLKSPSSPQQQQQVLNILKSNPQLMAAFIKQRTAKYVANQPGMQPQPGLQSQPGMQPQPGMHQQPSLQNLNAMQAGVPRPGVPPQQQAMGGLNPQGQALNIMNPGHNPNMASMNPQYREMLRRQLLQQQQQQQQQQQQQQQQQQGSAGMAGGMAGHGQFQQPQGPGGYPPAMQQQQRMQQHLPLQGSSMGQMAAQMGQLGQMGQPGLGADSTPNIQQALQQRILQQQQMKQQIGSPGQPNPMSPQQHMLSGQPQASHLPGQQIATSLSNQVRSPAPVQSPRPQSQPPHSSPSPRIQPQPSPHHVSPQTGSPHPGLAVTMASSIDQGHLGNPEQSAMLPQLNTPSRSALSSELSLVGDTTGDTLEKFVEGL
UniProt P10275: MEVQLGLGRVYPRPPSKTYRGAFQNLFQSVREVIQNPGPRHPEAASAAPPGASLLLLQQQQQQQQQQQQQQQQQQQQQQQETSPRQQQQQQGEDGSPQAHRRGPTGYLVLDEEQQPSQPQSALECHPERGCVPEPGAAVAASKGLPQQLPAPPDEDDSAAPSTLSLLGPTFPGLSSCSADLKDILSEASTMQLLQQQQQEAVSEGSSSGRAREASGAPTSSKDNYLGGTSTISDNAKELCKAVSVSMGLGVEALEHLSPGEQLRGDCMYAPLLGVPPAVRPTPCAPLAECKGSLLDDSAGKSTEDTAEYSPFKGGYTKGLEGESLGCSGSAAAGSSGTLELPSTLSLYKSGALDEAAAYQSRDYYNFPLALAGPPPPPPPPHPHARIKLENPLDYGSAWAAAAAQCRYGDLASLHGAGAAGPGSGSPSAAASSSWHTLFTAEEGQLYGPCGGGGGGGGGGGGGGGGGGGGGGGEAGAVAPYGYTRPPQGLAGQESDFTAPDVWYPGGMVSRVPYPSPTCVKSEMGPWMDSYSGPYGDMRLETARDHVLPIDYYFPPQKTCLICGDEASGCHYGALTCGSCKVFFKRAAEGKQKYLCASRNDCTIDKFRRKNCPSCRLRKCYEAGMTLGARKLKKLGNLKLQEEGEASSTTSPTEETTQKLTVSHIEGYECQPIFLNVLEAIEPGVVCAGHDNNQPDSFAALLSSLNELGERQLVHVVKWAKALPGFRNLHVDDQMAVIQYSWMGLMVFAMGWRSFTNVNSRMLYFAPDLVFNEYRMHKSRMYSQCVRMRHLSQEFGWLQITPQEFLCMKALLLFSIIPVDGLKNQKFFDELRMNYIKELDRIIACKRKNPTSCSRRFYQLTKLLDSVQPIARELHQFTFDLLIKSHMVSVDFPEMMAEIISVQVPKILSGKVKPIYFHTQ

Target: CREB-binding protein (CBP) (human (endogenous in BPH-1)) (UniProt Q92793)
Test: co-IP; BPH-1 cell lysate supernatant incubated overnight at 4 °C with anti-CBP antibody or IgG, then magnetic beads 1 h at room temperature; precipitate blotted for AR and CBP

For “androgen receptor (AR) (from UniProt P10275 1-920)”, the binding was “binds”.
